Test results: patent publication US20210261642A1, “SOLUBILITY OF GLP-1 PEPTIDE” (Novo Nordisk A/S, priority 2017, published 2021)
Further values from the same series stand in other lists.

Experiment: Assay (I): Determination of Solubility (96-well plate, pH 3.0-11.0, organic solvent 0-70% w/w, UV absorption at 280 nm)
Type: physicochemical
Conditions: Method 1
Procedure: Assay (I): Determination of Solubility
96-Well Plate Preparation
96-well plates containing target peptide in a solid form were prepared in one of two ways:
Method 1 (evaporation): Addition of 100 μl stock solution of said peptide at a concentration of 4-6 mg/ml to each well of a 96-well half area plate (150 μl well size). Subsequently the solvent was evaporated by applying a vacuum until the solvent was completely removed.
Method 2 (precipitation): Addition of a certain volume of a stock solution of said peptide containing to each well of a 96-well half area plate followed by the addition of a certain volume of concentrated phosphoric acid to obtain a pH of 4.6 followed by addition of a certain volume of ethanol resulting in a final ethanol concentration of 20% v/v. Subsequently the plate was stored at 4° C. for 1 h and then centrifuged at 4,000 rpm for 20 min. Finally the supernatant was removed. The concentration of the stock solution was chosen in a way that the final amount of peptide after supernatant removal was >0.4 mg per well.
In both cases the stock solution was prepared by adding de-ionized water to a certain amount of powder of said peptide followed by a stepwise addition of small amounts of a concentrated sodium hydroxide solution until said peptide was completely in solution.
To determine solubility of a target peptide at different pH and organic solvent concentrations, two different buffer systems were used in independent experiments to cover the whole range from pH 3.0 to pH 11.0. Buffer system 1 covers pH 3.0-7.5 and buffer system 2 covers pH 7.5-11.0. For each buffer system 96 different solvent compositions were premixed in the following way: • 1. A low pH buffer (adjusted to either pH 3.0 or pH 7.5) and a high pH buffer (adjusted to either pH 7.5 or pH 11.0) were mixed at 8 different ratios to obtain values between pH 3.0 and pH 7.5 or pH 7.5 and pH 11.0, respectively. The total volume after mixing was 300 μl. • 2. 12 different amounts of organic solvent were then added to these buffers to obtain organic solvent (e.g. ethanol) concentrations between 0 and 70% w/w. • 3. Water was then added to obtain a total weight of 1.0 g of solvent in each well.
After preparing the 96 different solvent systems, 100 μl of each system was transferred to the 96-well plate containing the solid form of the target peptide (prepared as described in the section “96-well plate preparation”). The plate was then stored at a given temperature (between 5° C. and 70° C.) for a given time on a rotating shaker set to 400 rpm. At regular time intervals the plate was centrifuged (4,000 rpm for 10 min) and a 10 μl sample was taken from each well. The samples were then analysed by UV absorption at 280 nm for peptide quantification. Peptide concentration results are given as UV absorption at 280 nm of the sample subtracted UV absorption at 280 nm of a well comprising 10 μl water.
The buffers used were as follows: • Buffer system 1 (for the pH range from pH 3.0-7.5)
• Buffer system 2 (for the pH ranae from pH 7.5-11.0)
Solubility of liraglutide was determined using Assay (I) described herein. Liraglutide was prepared using Method 1 (evaporation) or Method 2 (precipitation) as described in subsection “96-well plate preparation”.

[1] = MeCN 31.8% w/w, pH 10.0, 70° C.
[2] = MeCN 31.8% w/w, pH 10.5, 70° C.
[3] = MeCN 31.8% w/w, pH 11.0, 70° C.

Peptide concentration after 5 min (MeCN 31.8% w/w, pH 6.9, 70° C.): 3.3 mg/mL | Peptide concentration after 180 min (MeCN 31.8% w/w, pH 6.9, 70° C.): 3.5 mg/mL | Peptide concentration after 5 min (MeCN 31.8% w/w, pH 6.9, RT): 1.0 mg/mL | Peptide concentration after 180 min (MeCN 31.8% w/w, pH 6.9, RT): 3.0 mg/mL | Peptide concentration after 24 h (MeCN 31.8% w/w, pH 6.9, RT): 1.6 mg/mL | Peptide concentration after 5 min (MeCN 31.8% w/w, pH 7.5, 5° C.): 1.1 mg/mL | Peptide concentration after 180 min (MeCN 31.8% w/w, pH 7.5, 5° C.): 3.4 mg/mL | Peptide concentration after 24 h (MeCN 31.8% w/w, pH 7.5, 5° C.): >4.0 mg/mL | Peptide concentration after 5 min (MeCN 31.8% w/w, pH 7.5, 70° C.): >4.0 mg/mL | Peptide concentration after 180 min (MeCN 31.8% w/w, pH 7.5, 70° C.): >4.0 mg/mL | Peptide concentration after 5 min (MeCN 31.8% w/w, pH 7.5, RT): 1.1 mg/mL | Peptide concentration after 180 min (MeCN 31.8% w/w, pH 7.5, RT): >4.0 mg/mL | Peptide concentration after 24 h (MeCN 31.8% w/w, pH 7.5, RT): >4.0 mg/mL | Peptide concentration after 5 min (MeCN 31.8% w/w, pH 8.0, 70° C.): 4.0 mg/mL | Peptide concentration after 180 min (MeCN 31.8% w/w, pH 8.0, 70° C.): >4.0 mg/mL | Peptide concentration after 5 min (MeCN 31.8% w/w, pH 8.0, RT): 0.9 mg/mL | Peptide concentration after 180 min (MeCN 31.8% w/w, pH 8.0, RT): >4.0 mg/mL | Peptide concentration after 24 h (MeCN 31.8% w/w, pH 8.0, RT): >4.0 mg/mL | Peptide concentration after 5 min (MeCN 31.8% w/w, pH 8.5, 70° C.): >4.0 mg/mL | Peptide concentration after 180 min (MeCN 31.8% w/w, pH 8.5, 70° C.): >4.0 mg/mL | Peptide concentration after 5 min (MeCN 31.8% w/w, pH 8.5, RT): 1.1 mg/mL | Peptide concentration after 180 min (MeCN 31.8% w/w, pH 8.5, RT): >4.0 mg/mL | Peptide concentration after 24 h (MeCN 31.8% w/w, pH 8.5, RT): >4.0 mg/mL | Peptide concentration after 5 min (MeCN 31.8% w/w, pH 9.0, 70° C.): >4.0 mg/mL | Peptide concentration after 180 min (MeCN 31.8% w/w, pH 9.0, 70° C.): >4.0 mg/mL | Peptide concentration after 5 min (MeCN 31.8% w/w, pH 9.0, RT): 1.2 mg/mL | Peptide concentration after 180 min (MeCN 31.8% w/w, pH 9.0, RT): 3.8 mg/mL | Peptide concentration after 24 h (MeCN 31.8% w/w, pH 9.0, RT): >4.0 mg/mL | Peptide concentration after 5 min (MeCN 31.8% w/w, pH 9.5, 70° C.): 3.8 mg/mL | Peptide concentration after 180 min (MeCN 31.8% w/w, pH 9.5, 70° C.): >4.0 mg/mL | Peptide concentration after 5 min (MeCN 31.8% w/w, pH 9.5, RT): 1.3 mg/mL | Peptide concentration after 180 min (MeCN 31.8% w/w, pH 9.5, RT): >4.0 mg/mL | Peptide concentration after 24 h (MeCN 31.8% w/w, pH 9.5, RT): >4.0 mg/mL | Peptide concentration after 5 min [1]: >4.0 mg/mL | Peptide concentration after 180 min [1]: >4.0 mg/mL | Peptide concentration after 5 min (MeCN 31.8% w/w, pH 10.0, RT): 1.6 mg/mL | Peptide concentration after 180 min (MeCN 31.8% w/w, pH 10.0, RT): >4.0 mg/mL | Peptide concentration after 24 h (MeCN 31.8% w/w, pH 10.0, RT): >4.0 mg/mL | Peptide concentration after 5 min [2]: >4.0 mg/mL | Peptide concentration after 180 min [2]: >4.0 mg/mL | Peptide concentration after 5 min (MeCN 31.8% w/w, pH 10.5, RT): 1.4 mg/mL | Peptide concentration after 180 min (MeCN 31.8% w/w, pH 10.5, RT): >4.0 mg/mL | Peptide concentration after 24 h (MeCN 31.8% w/w, pH 10.5, RT): >4.0 mg/mL | Peptide concentration after 5 min [3]: 3.7 mg/mL | Peptide concentration after 180 min [3]: >4.0 mg/mL | Peptide concentration after 5 min (MeCN 31.8% w/w, pH 11.0, RT): 1.1 mg/mL | Peptide concentration after 180 min (MeCN 31.8% w/w, pH 11.0, RT): >4.0 mg/mL | Peptide concentration after 24 h (MeCN 31.8% w/w, pH 11.0, RT): >4.0 mg/mL | Peptide concentration after 5 min (MeCN 38.2% w/w, pH 3.0, 5° C.): 1.0 mg/mL | Peptide concentration after 180 min (MeCN 38.2% w/w, pH 3.0, 5° C.): 1.4 mg/mL
Structure (SMILES): CCCCCCCCCCCCCCCC(=O)N[C@@H](CCC(=O)NCCCC[C@H](NC(=O)[C@H](C)NC(=O)[C@H](C)NC(=O)[C@H](CCC(N)=O)NC(=O)CNC(=O)[C@H](CCC(=O)O)NC(=O)[C@H](CC(C)C)NC(=O)[C@H](Cc1ccc(O)cc1)NC(=O)[C@H](CO)NC(=O)[C@H](CO)NC(=O)[C@@H](NC(=O)[C@H](CC(=O)O)NC(=O)[C@H](CO)NC(=O)[C@@H](NC(=O)[C@H](Cc1ccccc1)NC(=O)[C@@H](NC(=O)CNC(=O)[C@H](CCC(=O)O)NC(=O)[C@H](C)NC(=O)[C@@H](N)Cc1cnc[nH]1)[C@@H](C)O)[C@@H](C)O)C(C)C)C(=O)N[C@@H](CCC(=O)O)C(=O)N[C@@H](Cc1ccccc1)C(=O)N[C@H](C(=O)N[C@@H](C)C(=O)N[C@@H](Cc1c[nH]c2ccccc12)C(=O)N[C@@H](CC(C)C)C(=O)N[C@H](C(=O)N[C@@H](CCCNC(=N)N)C(=O)NCC(=O)N[C@@H](CCCNC(=N)N)C(=O)NCC(=O)O)C(C)C)[C@@H](C)CC)C(=O)O [liraglutide, Arg34,Lys26-(N-epsilon-(gamma-L-glutamyl(N-alfa-hexadecanoyl)))-GLP-1(7-37)]
